{
  "source": "patent US8979831B2",
  "about": "(priority 2008, dated 2015)",
  "key": {"porcine liver": {"system": "porcine liver", "assay": "Acetyl Chloride injection into porcine liver using a plastic dilator as delivery tool"}, "porcine liver samples": {"system": "porcine liver samples", "details": "for Changes Temp: C. Trial #1 / Changes Temp: C. Trial #2 / Changes Temp: C. Trial #3 / Changes Temp: C. Trial #4: peak minus 0:00"}, "ex vivo porcine liver": {"system": "ex vivo porcine liver", "assay": "Acetyl chloride in diglyme injected into ex vivo porcine liver; temperature over 5 minutes", "details": "4M in diglyme, average column"}, "liver parenchyma": {"system": "liver parenchyma", "set-up": "species or system porcine"}, "[1]": {"details": "first Changes line, 0:00 minus 0:30"}, "[2]": {"details": "second Changes line, 0:00 minus 5:00"}, "[3]": {"details": "Acetyl Chloride alone: 200 microliters, first Changes line, 0:00 minus 0:30"}, "[4]": {"details": "Acetyl Chloride alone: 200 microliters"}, "[5]": {"details": "Acetyl Chloride alone: 200 microliters, second Changes line, 0:00 minus 5:00"}, "[6]": {"details": "Acetyl Chloride alone: 300 microliters, first Changes line, 0:00 minus 0:30"}, "[7]": {"details": "Acetyl Chloride alone: 300 microliters"}, "[8]": {"details": "Acetyl Chloride alone: 300 microliters, second Changes line, 0:00 minus 5:00"}, "[9]": {"details": "Acetyl Chloride alone: 500 microliters, first Changes line, 0:00 minus 0:30"}, "[10]": {"details": "Acetyl Chloride alone: 500 microliters"}, "[11]": {"details": "Acetyl Chloride alone: 500 microliters, second Changes line, 0:00 minus 5:00"}, "[12]": {"details": "AC 100 micro + 200 micro NaOH 1M, Trial #1"}, "[13]": {"details": "AC 100 micro + 200 micro NaOH 5M, Trial #2"}, "[14]": {"details": "AC 100 micro + 200 micro NaOH 10M, Trial #3"}, "[15]": {"details": "AC 200 micro + 100 micro NaOH 1M, Trial #1"}, "[16]": {"details": "AC 200 micro + 100 micro NaOH 5M, Trial #2"}, "[17]": {"details": "AC 200 micro + 100 micro NaOH 10M, Trial #3"}, "[18]": {"details": "AC 200 micro + 100 micro NaOH 15M, Trial #4"}, "[19]": {"details": "AC 200 micro + 200 micro NaOH 1M, Trial #1"}, "[20]": {"details": "AC 200 micro + 200 micro NaOH 5M, Trial #2"}, "[21]": {"details": "AC 200 micro + 200 micro NaOH 10M, Trial #3"}, "[22]": {"details": "AC 300 micro + 100 micro NaOH 1M, Trial #1"}, "[23]": {"details": "AC 300 micro + 100 micro NaOH 5M, Trial #2"}, "[24]": {"details": "AC 300 micro + 100 micro NaOH 10M, Trial #3"}, "[25]": {"details": "AC 300 micro + 100 micro NaOH 15M, Trial #4"}, "[26]": {"details": "AC 300 micro + 200 micro NaOH 1M, Trial #1"}, "[27]": {"details": "AC 300 micro + 200 micro NaOH 5M, Trial #2"}, "[28]": {"details": "AC 300 micro + 200 micro NaOH 10M, Trial #3"}},
  "note": "Read-outs that look alike come from different tables or passages of the source.",
  "data": [
    {"smiles": "CC(=O)Cl", "note": "[Acetyl Chloride]", "values": [
      {"measurement": "Changes pH Trial #1", "setting": "porcine liver; [1]", "result": 5.86},
      {"measurement": "Changes pH Trial #2", "setting": "porcine liver; [1]", "result": 1.64},
      {"measurement": "Changes pH Trial #3", "setting": "porcine liver; [1]", "result": 3.09},
      {"measurement": "Changes Temp: C. Trial #1", "setting": "porcine liver; peak minus 0:00", "result": 9.9, "unit": "C."},
      {"measurement": "Changes Temp: C. Trial #2", "setting": "porcine liver; peak minus 0:00", "result": 8.3, "unit": "C."},
      {"measurement": "Changes Temp: C. Trial #3", "setting": "porcine liver; peak minus 0:00", "result": 8.3, "unit": "C."},
      {"measurement": "Changes pH Trial #1", "setting": "porcine liver; [2]", "result": 6.84},
      {"measurement": "Changes pH Trial #2", "setting": "porcine liver; [2]", "result": 3.28},
      {"measurement": "Changes pH Trial #3", "setting": "porcine liver; [2]", "result": 5.63},
      {"measurement": "Changes pH Trial #1", "setting": "porcine liver samples; [3]", "result": 2.75},
      {"measurement": "Changes pH Trial #2", "setting": "porcine liver samples; [3]", "result": 2.05},
      {"measurement": "Changes pH Trial #3", "setting": "porcine liver samples; [3]", "result": 1.43},
      {"measurement": "Changes pH Trial #4", "setting": "porcine liver samples; [3]", "result": 3.44},
      {"measurement": "Changes Temp: C. Trial #1", "setting": "porcine liver samples; [4]", "result": 17.2, "unit": "C."},
      {"measurement": "Changes Temp: C. Trial #2", "setting": "porcine liver samples; [4]", "result": 7.2, "unit": "C."},
      {"measurement": "Changes Temp: C. Trial #3", "setting": "porcine liver samples; [4]", "result": 11.2, "unit": "C."},
      {"measurement": "Changes Temp: C. Trial #4", "setting": "porcine liver samples; [4]", "result": 8.2, "unit": "C."},
      {"measurement": "Changes pH Trial #1", "setting": "porcine liver samples; [5]", "result": 4.89},
      {"measurement": "Changes pH Trial #2", "setting": "porcine liver samples; [5]", "result": 4.27},
      {"measurement": "Changes pH Trial #3", "setting": "porcine liver samples; [5]", "result": 3.45},
      {"measurement": "Changes pH Trial #4", "setting": "porcine liver samples; [5]", "result": 4.22},
      {"measurement": "Changes pH Trial #1", "setting": "porcine liver samples; [6]", "result": 4.27},
      {"measurement": "Changes pH Trial #2", "setting": "porcine liver samples; [6]", "result": 2.93},
      {"measurement": "Changes pH Trial #4", "setting": "porcine liver samples; [6]", "result": 1.37},
      {"measurement": "Changes Temp: C. Trial #1", "setting": "porcine liver samples; [7]", "result": 4.3, "unit": "C."},
      {"measurement": "Changes Temp: C. Trial #2", "setting": "porcine liver samples; [7]", "result": 9.5, "unit": "C."},
      {"measurement": "Changes Temp: C. Trial #3", "setting": "porcine liver samples; [7]", "result": 7.4, "unit": "C."},
      {"measurement": "Changes Temp: C. Trial #4", "setting": "porcine liver samples; [7]", "result": 6.3, "unit": "C."},
      {"measurement": "Changes pH Trial #1", "setting": "porcine liver samples; [8]", "result": 5.37},
      {"measurement": "Changes pH Trial #2", "setting": "porcine liver samples; [8]", "result": 4},
      {"measurement": "Changes pH Trial #4", "setting": "porcine liver samples; [8]", "result": 4.68},
      {"measurement": "Changes pH Trial #1", "setting": "porcine liver samples; [9]", "result": 3.5},
      {"measurement": "Changes pH Trial #2", "setting": "porcine liver samples; [9]", "result": 3.14},
      {"measurement": "Changes pH Trial #3", "setting": "porcine liver samples; [9]", "result": 3.84},
      {"measurement": "Changes Temp: C. Trial #1", "setting": "porcine liver samples; [10]", "result": 26.1, "unit": "C."},
      {"measurement": "Changes Temp: C. Trial #2", "setting": "porcine liver samples; [10]", "result": 11.8, "unit": "C."},
      {"measurement": "Changes Temp: C. Trial #3", "setting": "porcine liver samples; [10]", "result": 12.8, "unit": "C."},
      {"measurement": "Changes pH Trial #1", "setting": "porcine liver samples; [11]", "result": 5.01},
      {"measurement": "Changes pH Trial #2", "setting": "porcine liver samples; [11]", "result": 4.72},
      {"measurement": "Changes pH Trial #3", "setting": "porcine liver samples; [11]", "result": 4.53},
      {"measurement": "Max delta T", "setting": "ex vivo porcine liver; 250 ul", "result": 28.7667, "unit": "C."},
      {"measurement": "Tmax", "setting": "ex vivo porcine liver; 250 ul", "result": 46.4667, "unit": "C."},
      {"measurement": "Max delta T", "setting": "ex vivo porcine liver; 2000 ul", "result": 37.6333, "unit": "C."},
      {"measurement": "Tmax", "setting": "ex vivo porcine liver; 2000 ul", "result": 55.0667, "unit": "C."},
      {"measurement": "Changes pH 1M Trial #1", "setting": "liver parenchyma; AC 100 micro + 100 micro NaOH 1M, Pre-base minus 0:00", "result": "−4.69"},
      {"measurement": "Changes pH 5M Trial #2", "setting": "liver parenchyma; AC 100 micro + 100 micro NaOH 5M, Pre-base minus 0:00", "result": "−7.08"},
      {"measurement": "Changes Temp: C. 5M Trial #2", "setting": "liver parenchyma; AC 100 micro + 100 micro NaOH 5M, peak minus Pre-base", "result": 17, "unit": "C."},
      {"measurement": "Changes pH 10M Trial #3", "setting": "liver parenchyma; AC 100 micro + 100 micro NaOH 10M, Pre-base minus 0:00", "result": "−7.54"},
      {"measurement": "Changes Temp: C. 10M Trial #3", "setting": "liver parenchyma; AC 100 micro + 100 micro NaOH 10M, peak minus Pre-base", "result": 29.8, "unit": "C."},
      {"measurement": "Changes pH 15M Trial #4", "setting": "liver parenchyma; AC 100 micro + 100 micro NaOH 15M, Pre-base minus 0:00", "result": "−7.82"},
      {"measurement": "Changes Temp", "setting": "liver parenchyma; [12]", "result": 16.6, "unit": "C."},
      {"measurement": "Changes pH", "setting": "liver parenchyma; [12]", "result": "−8.3"},
      {"measurement": "Changes Temp", "setting": "liver parenchyma; [13]", "result": 22.7, "unit": "C."},
      {"measurement": "Changes pH", "setting": "liver parenchyma; [13]", "result": "−8.97"},
      {"measurement": "Changes Temp", "setting": "liver parenchyma; [14]", "result": 16, "unit": "C."},
      {"measurement": "Changes pH", "setting": "liver parenchyma; [14]", "result": "−8.58"},
      {"measurement": "Changes Temp", "setting": "liver parenchyma; [15]", "result": 15.4, "unit": "C."},
      {"measurement": "Changes pH", "setting": "liver parenchyma; [15]", "result": "−5.76"},
      {"measurement": "Changes Temp", "setting": "liver parenchyma; [16]", "result": 7.9, "unit": "C."},
      {"measurement": "Changes pH", "setting": "liver parenchyma; [16]", "result": "−7.46"},
      {"measurement": "Changes Temp", "setting": "liver parenchyma; [17]", "result": 32.2, "unit": "C."},
      {"measurement": "Changes pH", "setting": "liver parenchyma; [17]", "result": "−7.87"},
      {"measurement": "Changes Temp", "setting": "liver parenchyma; [18]", "result": 23.3, "unit": "C."},
      {"measurement": "Changes pH", "setting": "liver parenchyma; [18]", "result": "−7.8"},
      {"measurement": "Changes Temp", "setting": "liver parenchyma; [19]", "result": 14, "unit": "C."},
      {"measurement": "Changes pH", "setting": "liver parenchyma; [19]", "result": "−7.98"},
      {"measurement": "Changes Temp", "setting": "liver parenchyma; [20]", "result": 20.6, "unit": "C."},
      {"measurement": "Changes pH", "setting": "liver parenchyma; [20]", "result": "−8.9"},
      {"measurement": "Changes Temp", "setting": "liver parenchyma; [21]", "result": 21.9, "unit": "C."},
      {"measurement": "Changes pH", "setting": "liver parenchyma; [21]", "result": "−7.2"},
      {"measurement": "Changes Temp", "setting": "liver parenchyma; [22]", "result": 22.5, "unit": "C."},
      {"measurement": "Changes pH", "setting": "liver parenchyma; [22]", "result": "−6.15"},
      {"measurement": "Changes Temp", "setting": "liver parenchyma; [23]", "result": 15.9, "unit": "C."},
      {"measurement": "Changes pH", "setting": "liver parenchyma; [23]", "result": "−8.38"},
      {"measurement": "Changes Temp", "setting": "liver parenchyma; [24]", "result": 16.3, "unit": "C."},
      {"measurement": "Changes pH", "setting": "liver parenchyma; [24]", "result": "−8"},
      {"measurement": "Changes Temp", "setting": "liver parenchyma; [25]", "result": 32, "unit": "C."},
      {"measurement": "Changes pH", "setting": "liver parenchyma; [25]", "result": "−8.69"},
      {"measurement": "Changes Temp", "setting": "liver parenchyma; [26]", "result": 25, "unit": "C."},
      {"measurement": "Changes pH", "setting": "liver parenchyma; [26]", "result": "−8.12"},
      {"measurement": "Changes Temp", "setting": "liver parenchyma; [27]", "result": 24.4, "unit": "C."},
      {"measurement": "Changes pH", "setting": "liver parenchyma; [27]", "result": "−8.05"},
      {"measurement": "Changes Temp", "setting": "liver parenchyma; [28]", "result": 28.4, "unit": "C."},
      {"measurement": "Changes pH", "setting": "liver parenchyma; [28]", "result": "−9.4"}
    ]}
  ]
}
